The target of assay [1] is T1, endogenous PRPF6 (pre-mRNA processing factor 6) of CWR22Rv1 cells (human (endogenous in CWR22Rv1)) (UniProt O94906).
T1 sequence: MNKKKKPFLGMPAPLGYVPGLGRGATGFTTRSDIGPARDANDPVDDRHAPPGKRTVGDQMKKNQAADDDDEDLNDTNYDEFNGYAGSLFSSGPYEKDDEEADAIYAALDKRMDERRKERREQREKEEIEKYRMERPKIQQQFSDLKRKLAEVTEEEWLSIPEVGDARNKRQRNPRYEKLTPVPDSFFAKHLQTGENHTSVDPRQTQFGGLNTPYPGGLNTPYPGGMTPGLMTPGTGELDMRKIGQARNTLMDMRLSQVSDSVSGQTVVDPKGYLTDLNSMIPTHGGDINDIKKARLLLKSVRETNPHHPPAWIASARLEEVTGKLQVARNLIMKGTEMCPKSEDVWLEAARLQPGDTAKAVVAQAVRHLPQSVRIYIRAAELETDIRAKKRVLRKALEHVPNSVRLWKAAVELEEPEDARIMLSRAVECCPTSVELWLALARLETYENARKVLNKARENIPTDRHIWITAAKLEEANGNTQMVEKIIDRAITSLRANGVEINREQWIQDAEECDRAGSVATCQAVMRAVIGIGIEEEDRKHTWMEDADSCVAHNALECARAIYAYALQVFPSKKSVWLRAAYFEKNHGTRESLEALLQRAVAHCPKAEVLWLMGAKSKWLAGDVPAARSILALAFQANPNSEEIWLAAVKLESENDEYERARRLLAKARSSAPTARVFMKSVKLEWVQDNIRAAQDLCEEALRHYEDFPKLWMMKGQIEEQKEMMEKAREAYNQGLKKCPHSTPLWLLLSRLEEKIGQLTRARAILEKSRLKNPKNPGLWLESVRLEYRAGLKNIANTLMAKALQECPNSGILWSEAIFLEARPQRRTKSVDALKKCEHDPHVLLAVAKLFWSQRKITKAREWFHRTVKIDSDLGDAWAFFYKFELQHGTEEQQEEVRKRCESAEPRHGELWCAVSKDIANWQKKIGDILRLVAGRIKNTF
Put plainly: co-IP; endogenous proteins; CWR22Rv1 cells treated with 10^-8 M DHT or ethanol for 24 hrs (in Figure 4E infected with shPRPF6 or shCtrl); whole cell lysates immunoprecipitated with normal IgG, anti-AR or anti-PRPF6 antibody, western blot. On the technique in general: Immunoblotting shows a protein as a band on a membrane.

Chains of the proteins cited; added tags and fusions are not shown.
UniProt P10275: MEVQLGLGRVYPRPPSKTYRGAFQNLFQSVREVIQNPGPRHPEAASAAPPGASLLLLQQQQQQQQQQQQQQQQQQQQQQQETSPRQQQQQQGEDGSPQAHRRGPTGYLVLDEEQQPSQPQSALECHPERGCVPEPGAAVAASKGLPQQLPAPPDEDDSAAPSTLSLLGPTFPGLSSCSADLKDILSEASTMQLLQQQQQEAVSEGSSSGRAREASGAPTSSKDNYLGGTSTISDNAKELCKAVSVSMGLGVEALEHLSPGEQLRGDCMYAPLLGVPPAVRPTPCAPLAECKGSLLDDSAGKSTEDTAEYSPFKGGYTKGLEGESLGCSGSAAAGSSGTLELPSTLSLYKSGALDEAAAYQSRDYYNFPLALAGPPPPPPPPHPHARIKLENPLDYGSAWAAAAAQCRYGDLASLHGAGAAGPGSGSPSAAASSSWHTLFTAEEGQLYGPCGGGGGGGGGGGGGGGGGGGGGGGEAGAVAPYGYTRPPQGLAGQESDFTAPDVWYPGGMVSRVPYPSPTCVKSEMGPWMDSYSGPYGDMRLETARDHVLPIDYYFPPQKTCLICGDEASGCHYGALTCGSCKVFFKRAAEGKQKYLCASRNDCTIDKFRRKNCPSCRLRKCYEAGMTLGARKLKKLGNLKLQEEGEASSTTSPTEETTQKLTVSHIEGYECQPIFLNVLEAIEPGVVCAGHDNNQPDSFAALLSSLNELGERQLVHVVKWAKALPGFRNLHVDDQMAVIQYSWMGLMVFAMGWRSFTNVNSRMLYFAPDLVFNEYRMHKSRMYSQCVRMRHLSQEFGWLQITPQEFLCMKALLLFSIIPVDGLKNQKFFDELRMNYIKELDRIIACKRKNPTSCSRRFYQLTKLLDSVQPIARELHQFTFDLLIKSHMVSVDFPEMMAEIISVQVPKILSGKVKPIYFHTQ
UniProt Q03164: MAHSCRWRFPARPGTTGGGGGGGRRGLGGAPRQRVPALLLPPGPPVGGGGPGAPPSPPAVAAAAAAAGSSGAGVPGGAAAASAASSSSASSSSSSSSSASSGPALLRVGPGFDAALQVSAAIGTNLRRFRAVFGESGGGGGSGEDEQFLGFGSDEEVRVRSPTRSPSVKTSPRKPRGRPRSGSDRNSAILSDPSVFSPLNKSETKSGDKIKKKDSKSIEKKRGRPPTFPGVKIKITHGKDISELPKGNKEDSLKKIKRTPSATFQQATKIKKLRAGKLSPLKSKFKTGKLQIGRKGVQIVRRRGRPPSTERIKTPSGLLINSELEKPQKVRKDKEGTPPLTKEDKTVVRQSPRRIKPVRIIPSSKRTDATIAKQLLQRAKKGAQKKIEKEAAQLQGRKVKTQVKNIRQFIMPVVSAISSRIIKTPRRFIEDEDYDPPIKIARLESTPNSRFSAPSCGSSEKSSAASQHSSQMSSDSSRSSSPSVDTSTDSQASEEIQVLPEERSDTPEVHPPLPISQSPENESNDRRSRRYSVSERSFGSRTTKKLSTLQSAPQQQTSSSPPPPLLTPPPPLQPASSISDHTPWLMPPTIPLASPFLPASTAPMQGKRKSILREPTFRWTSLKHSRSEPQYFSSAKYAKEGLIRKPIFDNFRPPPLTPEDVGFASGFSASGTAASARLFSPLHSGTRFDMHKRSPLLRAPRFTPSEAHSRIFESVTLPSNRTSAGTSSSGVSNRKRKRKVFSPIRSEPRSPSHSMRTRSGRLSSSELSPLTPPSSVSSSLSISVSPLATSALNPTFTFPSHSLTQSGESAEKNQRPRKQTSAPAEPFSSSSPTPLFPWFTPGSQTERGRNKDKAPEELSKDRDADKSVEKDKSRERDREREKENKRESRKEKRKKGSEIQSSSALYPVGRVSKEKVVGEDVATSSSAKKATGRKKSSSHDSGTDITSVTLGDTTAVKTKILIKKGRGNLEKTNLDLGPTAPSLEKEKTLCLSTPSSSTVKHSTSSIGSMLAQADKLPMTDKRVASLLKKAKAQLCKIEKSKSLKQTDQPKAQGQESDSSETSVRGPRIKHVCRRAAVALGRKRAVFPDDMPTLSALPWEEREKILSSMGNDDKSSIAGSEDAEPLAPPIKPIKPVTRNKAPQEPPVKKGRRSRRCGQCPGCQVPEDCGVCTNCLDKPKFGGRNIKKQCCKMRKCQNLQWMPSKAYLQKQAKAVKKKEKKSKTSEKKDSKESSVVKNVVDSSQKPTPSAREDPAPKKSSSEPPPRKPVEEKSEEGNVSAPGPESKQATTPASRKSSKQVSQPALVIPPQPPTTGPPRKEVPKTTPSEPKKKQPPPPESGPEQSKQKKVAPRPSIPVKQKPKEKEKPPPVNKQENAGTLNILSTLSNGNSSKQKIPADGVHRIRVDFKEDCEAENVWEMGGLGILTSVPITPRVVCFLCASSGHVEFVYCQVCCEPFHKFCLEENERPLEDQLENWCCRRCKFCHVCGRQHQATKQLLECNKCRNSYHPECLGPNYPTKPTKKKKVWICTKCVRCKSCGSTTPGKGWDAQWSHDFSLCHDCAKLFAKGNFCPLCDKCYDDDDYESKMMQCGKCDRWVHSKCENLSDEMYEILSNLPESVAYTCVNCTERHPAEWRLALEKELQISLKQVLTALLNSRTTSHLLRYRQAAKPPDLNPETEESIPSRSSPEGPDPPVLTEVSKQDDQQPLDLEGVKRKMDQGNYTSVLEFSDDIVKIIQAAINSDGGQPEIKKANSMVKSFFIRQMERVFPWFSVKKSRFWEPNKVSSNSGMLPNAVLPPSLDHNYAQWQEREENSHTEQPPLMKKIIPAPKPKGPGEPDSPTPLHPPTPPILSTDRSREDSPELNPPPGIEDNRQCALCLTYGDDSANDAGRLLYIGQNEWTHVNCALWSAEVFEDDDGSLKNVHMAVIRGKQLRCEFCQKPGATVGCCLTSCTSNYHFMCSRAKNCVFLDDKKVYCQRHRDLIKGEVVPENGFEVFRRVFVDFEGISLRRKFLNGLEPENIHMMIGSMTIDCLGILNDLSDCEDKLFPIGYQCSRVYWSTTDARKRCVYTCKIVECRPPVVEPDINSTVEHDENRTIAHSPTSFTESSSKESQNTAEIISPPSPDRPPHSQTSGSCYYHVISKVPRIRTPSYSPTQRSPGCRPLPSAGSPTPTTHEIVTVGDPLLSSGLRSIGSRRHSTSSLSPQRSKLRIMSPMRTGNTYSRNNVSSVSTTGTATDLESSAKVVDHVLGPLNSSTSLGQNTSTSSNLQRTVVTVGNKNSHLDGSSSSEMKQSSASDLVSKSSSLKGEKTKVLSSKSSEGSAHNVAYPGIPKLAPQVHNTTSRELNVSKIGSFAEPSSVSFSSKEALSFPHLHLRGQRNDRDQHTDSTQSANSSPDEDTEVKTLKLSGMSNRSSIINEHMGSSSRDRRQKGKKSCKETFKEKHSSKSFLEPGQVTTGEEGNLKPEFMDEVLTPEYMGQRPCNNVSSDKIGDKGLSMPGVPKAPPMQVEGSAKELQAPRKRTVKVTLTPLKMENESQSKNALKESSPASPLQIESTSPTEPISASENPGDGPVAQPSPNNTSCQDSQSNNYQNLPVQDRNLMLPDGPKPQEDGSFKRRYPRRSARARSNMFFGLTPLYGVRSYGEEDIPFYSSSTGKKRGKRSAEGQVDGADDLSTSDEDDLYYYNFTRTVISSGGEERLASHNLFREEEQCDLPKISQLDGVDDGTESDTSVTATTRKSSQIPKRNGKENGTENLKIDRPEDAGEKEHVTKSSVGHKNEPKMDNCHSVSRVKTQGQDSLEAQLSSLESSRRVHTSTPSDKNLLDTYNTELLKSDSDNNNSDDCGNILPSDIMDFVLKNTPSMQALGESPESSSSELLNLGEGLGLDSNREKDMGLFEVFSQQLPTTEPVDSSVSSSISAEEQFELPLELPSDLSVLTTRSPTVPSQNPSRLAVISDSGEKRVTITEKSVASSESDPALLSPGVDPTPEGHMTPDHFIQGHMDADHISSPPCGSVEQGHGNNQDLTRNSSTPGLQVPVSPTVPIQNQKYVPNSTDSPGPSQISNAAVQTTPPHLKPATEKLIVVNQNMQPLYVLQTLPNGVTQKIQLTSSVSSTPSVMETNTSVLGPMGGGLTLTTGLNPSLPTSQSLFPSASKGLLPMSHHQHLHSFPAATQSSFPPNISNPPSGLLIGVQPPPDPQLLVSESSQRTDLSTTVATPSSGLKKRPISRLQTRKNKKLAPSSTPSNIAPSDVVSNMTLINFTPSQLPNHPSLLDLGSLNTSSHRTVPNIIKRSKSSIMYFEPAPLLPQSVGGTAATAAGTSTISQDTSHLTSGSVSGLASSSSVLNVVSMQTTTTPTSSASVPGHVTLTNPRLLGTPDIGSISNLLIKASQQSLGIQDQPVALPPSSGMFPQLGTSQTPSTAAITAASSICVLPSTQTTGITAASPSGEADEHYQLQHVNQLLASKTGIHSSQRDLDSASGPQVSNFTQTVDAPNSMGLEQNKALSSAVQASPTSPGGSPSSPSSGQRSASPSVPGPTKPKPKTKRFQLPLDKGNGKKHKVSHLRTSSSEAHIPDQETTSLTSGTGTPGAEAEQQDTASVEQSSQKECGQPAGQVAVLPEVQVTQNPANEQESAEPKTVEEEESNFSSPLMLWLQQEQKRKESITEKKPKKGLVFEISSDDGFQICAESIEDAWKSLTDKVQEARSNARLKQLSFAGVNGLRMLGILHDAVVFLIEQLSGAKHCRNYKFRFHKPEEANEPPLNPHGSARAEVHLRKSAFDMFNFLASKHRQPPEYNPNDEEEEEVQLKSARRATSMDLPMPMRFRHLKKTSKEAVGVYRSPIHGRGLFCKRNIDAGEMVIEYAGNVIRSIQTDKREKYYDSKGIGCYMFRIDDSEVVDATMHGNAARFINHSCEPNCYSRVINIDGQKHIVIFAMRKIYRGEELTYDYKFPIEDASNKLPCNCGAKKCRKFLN

The target of assay [2] is AR full length (AR-FL), exogenously expressed in HEK293 cells (UniProt P10275). Nature of the assay: co-IP; HEK293 cells co-transfected with AR-FL and PRPF6 plasmids, DHT (10^-8 M) or ethanol for 24 hrs; whole cell lysates immunoprecipitated with anti-AR antibody, western blot.
In assay [3] the target is AR overexpressed from an AR expression plasmid in CWR22Rv1 cells (UniProt P10275). Put plainly: co-IP; CWR22Rv1 cells infected with shPRPF6 or shCtrl and transfected with AR expression plasmid, 10^-8 M DHT or ethanol for 24 hrs; lysates immunoprecipitated with normal IgG or anti-AR antibody, western blot.

The record followed here is PMC7757026.

No constants are given. Whether binding was seen depends on the method and setting. Binding seen in cells or lysates may run through a third protein. Some results given as binding are weak or reduced against the parent protein; the word gives no strength. Tags and fused reporters may be left off the sequences shown.

For “endogenous mixed-lineage leukemia 1 (MLL1) of CWR22Rv1 cells (from UniProt Q03164 1-3969) (enzyme)”, in assay [1], the binding entry is “no binding”.

B1: Myc-tagged PRPF6 (pre-mRNA processing factor 6) (protein, UniProt O94906 1-941)
chain: T1 sequence
With B1, the binding entry in assay [2] is given as “binds”.

B2: endogenous JMJD1A (histone demethylase jumonji domain containing 1A) of CWR22Rv1 cells (enzyme, UniProt Q9Y4C1 1-1321)
chain: MVLTLGESWPVLVGRRFLSLSAADGSDGSHDSWDVERVAEWPWLSGTIRAVSHTDVTKKDLKVCVEFDGESWRKRRWIEVYSLLRRAFLVEHNLVLAERKSPEISERIVQWPAITYKPLLDKAGLGSITSVRFLGDQQRVFLSKDLLKPIQDVNSLRLSLTDNQIVSKEFQALIVKHLDESHLLKGDKNLVGSEVKIYSLDPSTQWFSATVINGNPASKTLQVNCEEIPALKIVDPSLIHVEVVHDNLVTCGNSARIGAVKRKSSENNGTLVSKQAKSCSEASPSMCPVQSVPTTVFKEILLGCTAATPPSKDPRQQSTPQAANSPPNLGAKIPQGCHKQSLPEEISSCLNTKSEALRTKPDVCKAGLLSKSSQIGTGDLKILTEPKGSCTQPKTNTDQENRLESVPQALTGLPKECLPTKASSKAELEIANPPELQKHLEHAPSPSDVSNAPEVKAGVNSDSPNNCSGKKVEPSALACRSQNLKESSVKVDNESCCSRSNNKIQNAPSRKSVLTDPAKLKKLQQSGEAFVQDDSCVNIVAQLPKCRECRLDSLRKDKEQQKDSPVFCRFFHFRRLQFNKHGVLRVEGFLTPNKYDNEAIGLWLPLTKNVVGIDLDTAKYILANIGDHFCQMVISEKEAMSTIEPHRQVAWKRAVKGVREMCDVCDTTIFNLHWVCPRCGFGVCVDCYRMKRKNCQQGAAYKTFSWLKCVKSQIHEPENLMPTQIIPGKALYDVGDIVHSVRAKWGIKANCPCSNRQFKLFSKPASKEDLKQTSLAGEKPTLGAVLQQNPSVLEPAAVGGEAASKPAGSMKPACPASTSPLNWLADLTSGNVNKENKEKQPTMPILKNEIKCLPPLPPLSKSSTVLHTFNSTILTPVSNNNSGFLRNLLNSSTGKTENGLKNTPKILDDIFASLVQNKTTSDLSKRPQGLTIKPSILGFDTPHYWLCDNRLLCLQDPNNKSNWNVFRECWKQGQPVMVSGVHHKLNSELWKPESFRKEFGEQEVDLVNCRTNEIITGATVGDFWDGFEDVPNRLKNEKEPMVLKLKDWPPGEDFRDMMPSRFDDLMANIPLPEYTRRDGKLNLASRLPNYFVRPDLGPKMYNAYGLITPEDRKYGTTNLHLDVSDAANVMVYVGIPKGQCEQEEEVLKTIQDGDSDELTIKRFIEGKEKPGALWHIYAAKDTEKIREFLKKVSEEQGQENPADHDPIHDQSWYLDRSLRKRLHQEYGVQGWAIVQFLGDVVFIPAGAPHQVHNLYSCIKVAEDFVSPEHVKHCFWLTQEFRYLSQTHTNHEDKLQVKNVIYHAVKDAVAMLKASESSFGKP
As for B2, the binding result in assay [3] and in assay [1] was “binds” in each case.
